Experimental data as given in article doi:10.1101/2022.10.27.514150.
Results are given in words; binding and its absence hold for the method and conditions named. In cells and extracts the contact can be indirect. Here binding means that the protein was enriched with, or labelled near, the bait; the list need not be complete. No binding means not detected with the bait.

The chains behind the UniProt entries cited, without tags or fusion partners. Where a name states a change or a piece, a line headed by the entry shows the natural chain unless it says otherwise.
UniProt O15350, whole entry, looked up, stated change not applied: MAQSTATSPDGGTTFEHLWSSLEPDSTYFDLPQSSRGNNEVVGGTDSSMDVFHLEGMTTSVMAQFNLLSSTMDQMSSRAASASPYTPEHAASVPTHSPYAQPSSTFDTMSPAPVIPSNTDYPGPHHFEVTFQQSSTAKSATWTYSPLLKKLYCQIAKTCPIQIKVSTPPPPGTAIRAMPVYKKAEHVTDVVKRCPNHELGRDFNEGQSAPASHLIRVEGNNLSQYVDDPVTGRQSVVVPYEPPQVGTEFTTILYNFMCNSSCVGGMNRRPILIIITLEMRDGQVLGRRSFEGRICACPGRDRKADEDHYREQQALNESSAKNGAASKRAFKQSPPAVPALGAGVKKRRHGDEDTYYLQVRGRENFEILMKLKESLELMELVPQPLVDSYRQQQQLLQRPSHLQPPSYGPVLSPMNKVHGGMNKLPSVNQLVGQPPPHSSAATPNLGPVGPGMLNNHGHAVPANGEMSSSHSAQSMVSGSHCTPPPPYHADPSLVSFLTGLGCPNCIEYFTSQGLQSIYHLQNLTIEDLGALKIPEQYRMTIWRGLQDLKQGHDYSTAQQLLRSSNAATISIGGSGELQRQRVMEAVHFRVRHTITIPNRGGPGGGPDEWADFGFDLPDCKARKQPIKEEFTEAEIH

Target: T1, ΔNp73α-TAP (UniProt O15350)
T1 sequence: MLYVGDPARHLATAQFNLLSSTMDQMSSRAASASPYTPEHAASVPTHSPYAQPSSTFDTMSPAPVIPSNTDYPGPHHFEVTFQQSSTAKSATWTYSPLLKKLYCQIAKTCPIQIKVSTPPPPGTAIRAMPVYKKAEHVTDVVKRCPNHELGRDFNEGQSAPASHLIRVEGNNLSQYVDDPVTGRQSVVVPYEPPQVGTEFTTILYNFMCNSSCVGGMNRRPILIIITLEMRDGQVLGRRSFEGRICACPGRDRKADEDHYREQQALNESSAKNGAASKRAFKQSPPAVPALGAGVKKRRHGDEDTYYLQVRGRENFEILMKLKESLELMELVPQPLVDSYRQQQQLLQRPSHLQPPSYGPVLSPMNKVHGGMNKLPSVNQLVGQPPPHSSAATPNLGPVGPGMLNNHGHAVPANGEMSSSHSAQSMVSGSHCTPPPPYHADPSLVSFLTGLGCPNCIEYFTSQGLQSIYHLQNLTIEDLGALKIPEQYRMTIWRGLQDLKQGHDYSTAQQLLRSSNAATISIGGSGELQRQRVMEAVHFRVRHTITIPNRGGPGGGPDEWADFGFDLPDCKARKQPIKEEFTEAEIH
Test: affinity purification with mass spectrometry

Substance: HPV38 E6 oncoprotein in 38HK (human papillomavirus type 38)
- binding: no binding

Substance: HPV38 E7 oncoprotein in 38HK (human papillomavirus type 38)
- binding: no binding
